Assay results: patent publication US6695968B2, “Removal of water solubilized organics” (Baker Hughes Incorporated, priority 2001, dated 2004)
Where two headings read alike, the source gives them in different places.

Conditions: pH 6.9
[1] = HOAcOH 210 ppm, Cationic REB 2.5 ppm, Anionic Polymer 3.5 ppm
[2] = HOAcOH 210 ppm, Cationic REB 3.0 ppm, Anionic Polymer 3.0 ppm
[3] = HOAcOH 305 ppm, Cationic REB 2.0 ppm, Anionic Polymer 4.0 ppm

Question: What does the source list for O=C(O)CO [HOAcOH (inv.), hydroxyacetic (glycolic) acid]?
Answer: WSO (HOAcOH 175 ppm, Cationic REB 3.0 ppm, Anionic Polymer 3.0 ppm, 27 ppm without HOAcOH): 19 ppm; O&G (HOAcOH 175 ppm, Cationic REB 3.0 ppm, Anionic Polymer 3.0 ppm, 34 ppm without HOAcOH): 25 ppm; O&G [1]: 20 ppm; WSO [1]: 13 ppm; O&G [2]: 26 ppm; WSO [2]: 13 ppm; O&G [3]: 16 ppm; WSO [3]: 9 ppm
